Values quoted from earlier work as cited in patent US20210085621A1, “METHODS AND COMPOSITIONS FOR TREATING PULMONARY HYPERTENSION” (Abraxis BioScience, LLC, priority 2018, published 2021).
At least one structure is not confirmed: it was looked up by name or label, or the drawing left a doubt.

Biological target: T1, mTORC1 in HUVEC cells (Homo sapiens, UniProt P42345)
T1 construct: and in HUVEC cells (10 nM-1 μM); endogenous in cells; host or cells: HUVEC cells

SMILES: COC(=O)Nc1ccc(-c2nc(N3CCOCC3)c3cnn(C4CCN(C(=O)OC)CC4)c3n2)cc1 [WYE-354]
- concentration range inhibiting mTORC1: 10 nM-1 μM
